This assay can be described thus: IkB Signaling. The conditions noted are these: ABC-DLBCL IkBa-CBG/CBR dual luciferase ratio (green luciferase fused to IkBa over red control in OCI-Ly3 lymphoma cells), 4 h. In short, it runs like this: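 Curves were fitted separately to fusion (green), unfused (red) and ratio luminescence, then classed by r2, magnitude and activity. Cells: OCI-Ly3, 4 h compound plus doxycycline at 37C; 10 uM MG-132 defined full response.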
[1] abbreviates: measured here: control luc red channel unless noted.
[2] abbreviates: measured here: IkB-luc green channel.
Setting [3] is: measured here: control luc red channel.

The list shows a part of the results. These are further read-outs of the screen, such as a control signal, another cell line or another target. No call is given for them. Most of these compounds were active or inconclusive in the main read-out, so they are no random draw. Words in brackets tell the shape of the fitted curve; partial curves, single points and poor fits give uncertain potencies.

Among the data in PubChem BioAssay AID445 (National Center for Advancing Translational Sciences (NCATS), 2006) are AC50 values, retold here.

`O=C(Nc1ccc(Cl)cc1)N1CCN(c2ccc3nnc(-c4ccccc4)n3n2)CC1`: under setting [1], the AC50 – broadly, the concentration giving half of the maximal activity seen – is 25.1 µM [falling, single point]. Same read-out and setting: for `Cc1ccc(-c2nnc3sc(CCc4ccccc4)nn23)cc1` the value was 0.2 µM [rising, full curve, poor fit]; for `O=C(C1CCC(Cn2c(=O)c3sccc3n(Cc3ccccc3F)c2=O)CC1)N1CCCCC1` (stereo not given), 31.6 µM [falling, single point]. Same read-out and setting: for `COc1ccccc1N(CC(=O)NCCSCc1cccc(Cl)c1)S(C)(=O)=O` the value was 12.6 µM [falling, partial curve]. On the same count and under the same terms, for `CC(C)NC(=O)C1CCN(C(=O)c2cc3sccc3n2Cc2ccc(Cl)cc2)CC1` the value was 5.01 µM [falling, partial curve]. `Cc1cc(C)c(NC(=O)c2ncoc2-c2ccco2)c(C)c1`: the AC50 under setting [1] was 39.8 µM [falling, single point]. On the same count and under the same terms, the figure for `COC(=O)c1cnn2c(C)c(Cc3c(C)cc(C)cc3C)c(C)nc12` is 31.6 µM [falling, partial curve]; for `O=C(Nc1nnc(S(=O)(=O)N2CCCc3ccccc32)s1)c1ccccc1` it is 1 µM [rising, single point]. The same measure, in the same setting: the figure for `COc1ccc(NC(=O)CCn2c(=O)c3cccn3c3ccccc32)c(OC)c1` is 0.02 µM [falling, full curve, poor fit]; for `Cc1[nH]nc(-c2ccc(O)c(C)c2O)c1-c1cnn(-c2ccccc2)c1` it is 10 µM [falling, partial curve]. Same read-out and setting: for `CCNc1ccc2c(Cl)cc(=O)oc2c1` the value was 0.794 µM [falling, full curve]; for `CC(=O)c1ccc(NC(=O)CN(C)S(=O)(=O)c2cccc3nsnc23)cc1`, 15.8 µM [falling, partial curve].

Consider `COc1ccccc1-c1cc2nc(C)c(CCC(=O)NCc3cccc(Cl)c3)c(C)n2n1`, for which the AC50 under setting [1] was 0.316 µM [falling, full curve]. The same measure, in the same setting: the figure for `CCCCn1c(C(C)NC(=O)c2ccccc2)nc2ccccc21` (stereo not given) is 20 µM [falling, partial curve, poor fit]; for `COC(=O)c1c(NC(=O)CS(=O)(=O)c2ccc(C)cc2)sc2c1CCCC2` it is 10 µM [falling, partial curve]; for `O=C(Nc1cccc(Cl)c1)c1ccc(F)c(S(=O)(=O)N2CCC3(CC2)OCCO3)c1` it is 25.1 µM [falling, partial curve]. On the same count and under the same terms, for `CCN(C(=O)Cn1nnc2sc(-c3ccccc3)cc2c1=O)c1cccc(C)c1` the value was 15.8 µM [falling, partial curve]; for `Cc1cc(NC(=O)CCNS(=O)(=O)c2ccc3c(c2)oc(=O)n3C)ccc1Br`, 39.8 µM [falling, single point]. Still for that read-out and setting: for `CCN(CC)C(=O)c1cc(-c2ccc(Cl)cc2)on1` the value was 39.8 µM [falling, single point].

As to `CCc1nn(CC(=O)NCc2ccccc2Cl)c(=O)c2cccn12`, under setting [1], the AC50 was 3.98 µM [falling, full curve]. Same read-out and setting: for `Cc1nc(-c2ccc(S(=O)(=O)Nc3ccc(C)c(N(C)C)c3)cc2)co1` the value was 0.0794 µM [falling, full curve, poor fit]; for `O=C(COc1ccccc1[N+](=O)[O-])Nc1ccc(-c2nc3ccccc3s2)cc1`, 0.0126 µM [rising, full curve, poor fit]. As to `COc1ccccc1-n1c(-c2ccc(C)cc2)cn2c3c(=O)n(C)c(=O)n(C)c3nc12`, the half-maximal activity concentration (AC50) under setting [1] was 0.00631 µM [rising, full curve, poor fit]. On the same count and under the same terms, for `COc1ccc(NC(=O)c2cnc[nH]2)cc1` the value was 0.316 µM [rising, full curve, poor fit]; for `COc1ccc(S(=O)(=O)c2cc(NS(=O)(=O)c3ccc(Cl)cc3)c(C)c(C)c2O)cc1`, 20 µM [falling, partial curve]; for `CCc1ccccc1NC(=O)c1cc(S(=O)(=O)N2CCCc3ccccc32)ccc1F`, 25.1 µM [falling, single point]. `CC(C)CCn1c(=O)c2sccc2n2c(CCCC(=O)NCc3ccc(F)cc3)nnc12`: under setting [1], the AC50 is 31.6 µM [falling, partial curve]. Take `Fc1cccc(-n2ncc3c2ncn2nc(-c4ccccc4Cl)nc32)c1`: under setting [1], the concentration at half-maximal activity (AC50) was 0.794 µM [rising, full curve, poor fit]. `Cc1cccc(N2CCN(C(=O)CCn3c(=O)c4cccn4c4cccnc43)CC2)c1C`: the half-maximal activity concentration (AC50) under setting [1] is 0.00631 µM [falling, full curve, poor fit].

Consider `CCOc1ccc(N(C)C(CNS(=O)(=O)c2ccccc2)c2ccccc2)cc1` (stereo not given), for which the AC50 under setting [1] is 31.6 µM [falling, partial curve].

With `N#Cc1cccc(NC(=O)c2cc3c(s2)-c2ccc(Cl)cc2SC3)c1`, the AC50 under setting [1] was 3.16 µM [rising, partial curve]. The same measure, in the same setting: for `COc1ccccc1N1CCN(C(=O)c2cc(-c3ccccc3O)on2)CC1` the value was 1.58 µM [falling, full curve]. On the same count and under the same terms, the figure for `CCOc1ccc(C(=O)Nc2cc(-c3nc4ccccc4s3)ccc2OC)cc1` is 3.98 µM [rising, full curve]; for `Cc1cccc(NC(=O)C2CCCN(c3nc4ccccc4s3)C2)c1C` (stereo not given) it is 12.6 µM [falling, partial curve]. Same read-out and setting: for `Cc1ccc(CCNC(=O)c2ccc(CS(=O)(=O)Cc3ccccc3F)o2)cc1` the value was 12.6 µM [falling, partial curve]; for `COc1ccc(S(=O)(=O)N2CCN(Cc3cccc(Cl)c3)CC2)cc1`, 15.8 µM [falling, partial curve]; for `O=S(=O)(Nc1ccc(Cl)cc1)c1cccc(S(=O)(=O)c2ccc(Cl)c(Cl)c2)c1`, 20 µM [falling, partial curve]. Take `CCCCN(C)C(=O)Cn1c(SCC(=O)Nc2ccc(C)c(C)c2)nc2ccccc21`: the half-maximal activity concentration (AC50) under setting [1] was 25.1 µM [falling, single point].

For `Cc1nc2ccccc2n1CCc1nc2c3ccccc3nc(SCc3ccc(F)cc3)n2n1`, the AC50 under setting [1] is 1.26 µM [rising, full curve]. With `COc1ccccc1N1CCN(CC(O)COc2ccc(C)cc2C(C)(C)C)CC1` (stereo not given), the concentration at half-maximal activity (AC50) was 31.6 µM [falling, single point] under setting [2] and 25.1 µM [falling, partial curve] under setting [3]. As for `CNc1nc(-c2ccc(Cl)cc2)cs1`, the AC50 under setting [1] is 3.16 µM [rising, partial curve]. `CCOC(=O)c1c(C)oc2nc(C)nc(NCC3CCN(Cc4cccc(Cl)c4)CC3)c12`: the AC50 under setting [1] was 10 µM [falling, partial curve, poor fit]. On the same count and under the same terms, the figure for `CCOc1cc(CNC(=O)c2ccc3nc(CCc4ccccc4)oc3c2)ccc1OC` is 3.16 µM [rising, partial curve]; for `Cc1ccc(S(=O)(=O)NCCc2csc3nc(-c4ccccc4C)nn23)cc1` it is 25.1 µM [falling, single point]; for `O=S(=O)(c1cccs1)N1CCN(CC(O)COc2cc(Cl)ccc2Cl)CC1` (stereo not given) it is 15.8 µM [falling, partial curve]. Still for that read-out and setting: the figure for `Cc1ccc(CNC(=O)C(C)n2ccc3cc(S(=O)(=O)N4CCCC4)ccc32)cc1` (stereo not given) is 10 µM [falling, partial curve]; for `O=C(Nc1nnc(SCc2cc(=O)n3cc(Cl)ccc3n2)s1)c1cccc(F)c1` it is 0.316 µM [falling, full curve, poor fit].

In the case of `O=C(c1ccc2c(Cl)c3c(nc2c1)CCCC3)N1CCN(c2ccccc2F)CC1`, under setting [1], the half-maximal activity concentration (AC50) is 12.6 µM [falling, partial curve]. On the same count and under the same terms, for `CCc1ccc(-c2cn(-c3nc(C)cc(C)n3)c(=N)o2)cc1` the value was 10 µM [falling, partial curve]. Still for that read-out and setting: for `CCC(C(=O)N1CCN(c2ccccc2)CC1)n1nc(C)c2sc3ccccc3c2c1=O` (stereo not given) the value was 5.01 µM [falling, partial curve]; for `COc1cccc(C2=CC(c3ccccc3F)n3c(nc4ccccc43)N2)c1` (stereo not given), 15.8 µM [falling, partial curve]. As to `Cc1ccc2cc(C(c3nnnn3C3CCCC3)N(Cc3cccnc3)Cc3ccco3)c(=O)[nH]c2c1` (stereo not given), the AC50 reads like this: under setting [2], 25.1 µM [falling, single point]; under setting [3], 25.1 µM [falling, partial curve]. Take `CCOc1ccc(N2CC(c3nc4ccccc4n3CCOc3ccc(CC)cc3)CC2=O)cc1` (stereo not given): the AC50 under setting [1] was 39.8 µM [falling, single point]. Still for that read-out and setting: the figure for `COc1cccc(N2CC(NC(=O)C3CC3)CC2=O)c1` (stereo not given) is 3.16 µM [rising, full curve]; for `Cc1nc2cc(-c3cccc(F)c3)nn2c(C)c1CCC(=O)NC(C)CCc1ccco1` (stereo not given) it is 0.251 µM [falling, full curve]. Still for that read-out and setting: for `Cc1ccc(CCNC(=O)c2ccc(NC(=O)N3CCSc4ccccc43)cc2)cc1` the value was 39.8 µM [falling, single point]; for `CCOc1ccc2c(c1)c(=O)c(C(=O)c1ccc(CC)cc1)cn2CC(=O)Nc1ccccc1C`, 20 µM [falling, partial curve]. Same read-out and setting: for `CCCN(C(=O)c1cc2c(=O)oc3ccccc3c2s1)c1ccccc1C` the value was 15.8 µM [falling, partial curve]; for `Cc1ccc(-n2nc3c(=O)n(CCCC(=O)NCc4ccccc4F)nc(C)c3c2C)cc1`, 15.8 µM [falling, partial curve]. On to `O=C(Nc1c(C(=O)N2CCN(c3ccccc3F)CC2)oc2ccccc12)c1ccccc1F`, for which, under setting [1], the AC50 was 15.8 µM [falling, partial curve]. The same measure, in the same setting: for `O=C(CN1CCCN(Cc2ccc(F)cc2)S1(=O)=O)NCc1ccccc1Cl` the value was 10 µM [falling, partial curve]; for `CCC12CN3CC(CC)(CN(C1)C3c1cc(Br)ccc1OC)C2=O` (stereo not given), 39.8 µM [falling, single point]. Same read-out and setting: for `Cc1nc(-c2ccc(S(=O)(=O)N3CCN(c4ccc(F)cc4)CC3)cc2)co1` the value was 7.94 µM [falling, partial curve, poor fit].
